# Assay results from article PMC8974069.
# Chains of the proteins cited; added tags and fusions are not shown.
# UniProt P17070: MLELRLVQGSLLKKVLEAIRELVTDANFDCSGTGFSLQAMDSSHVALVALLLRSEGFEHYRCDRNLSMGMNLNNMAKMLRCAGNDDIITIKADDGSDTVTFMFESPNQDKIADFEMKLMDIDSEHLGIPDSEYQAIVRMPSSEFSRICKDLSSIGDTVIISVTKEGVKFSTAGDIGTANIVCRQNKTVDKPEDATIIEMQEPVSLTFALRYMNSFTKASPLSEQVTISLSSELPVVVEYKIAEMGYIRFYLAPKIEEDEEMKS
# No constants are given. Whether binding was seen depends on the method and setting. Some results given as binding are weak or reduced against the parent protein; the word gives no strength. Where a sequence is shown, tags or fusion partners need not be part of it.
# Molecular target: T1, OsGEN1-BD (rice) (UniProt Q64MA3)
# T1 sequence: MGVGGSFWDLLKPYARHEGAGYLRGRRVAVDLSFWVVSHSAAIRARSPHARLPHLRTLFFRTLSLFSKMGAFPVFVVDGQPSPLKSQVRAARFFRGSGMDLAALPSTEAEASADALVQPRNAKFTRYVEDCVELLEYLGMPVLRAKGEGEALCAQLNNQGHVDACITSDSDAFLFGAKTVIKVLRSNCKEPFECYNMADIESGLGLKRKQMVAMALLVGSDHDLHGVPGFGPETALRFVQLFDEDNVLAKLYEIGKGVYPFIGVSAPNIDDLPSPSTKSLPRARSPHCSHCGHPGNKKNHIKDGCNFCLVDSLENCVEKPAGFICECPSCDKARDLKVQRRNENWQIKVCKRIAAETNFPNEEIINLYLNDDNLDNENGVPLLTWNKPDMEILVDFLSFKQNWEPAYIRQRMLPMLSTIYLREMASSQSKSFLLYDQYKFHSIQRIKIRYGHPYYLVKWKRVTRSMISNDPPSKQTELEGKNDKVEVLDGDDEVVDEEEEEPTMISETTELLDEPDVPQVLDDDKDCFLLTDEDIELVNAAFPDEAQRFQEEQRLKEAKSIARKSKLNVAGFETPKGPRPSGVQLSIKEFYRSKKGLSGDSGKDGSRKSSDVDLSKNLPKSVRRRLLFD
# Experiment: two-hybrid; GAL4-based, yeast strain AH109; OsPCNA-AD with truncated or mutated CHR721-BD or OsGEN1-BD; growth on SD-Ade/-Leu/-Trp/-His (Fig. 3, Fig. S2; medium of Fig. 4 not told)
substance,measurement,value
OsPCNA-AD (from UniProt P17070 1-263),binding,binds
